Numbering of substitutions follows the chain as printed. Results are given in words; binding and its absence hold for the method and conditions named. Some entries that bind do so weakly or less than the wild type. One block for each binder: values may come before it.
How the values were obtained:
[1] = target: human MIP-1α/CCL3 (human) (UniProt P10147); assay: MSD electrochemiluminescence, coated chemokine, purified antibody 3 µg/mL (FIG. 8)
[2] = target: human MIP-1α/CCL3 (human) (UniProt P10147); assay: ELISA, purified antibody (FIG. 1) and original supernatant
[3] = target: MCP-2; assay: MSD electrochemiluminescence assay; chemokine coated at 1 µg/mL, 3C12F at 3 µg/mL; background = BSA
[4] = target: Fractalkine; assay: as above
[5] = target: human MIP-1α/CCL3 (human) (UniProt P10147); assay: as above
[6] = target: human MIP-1α/CCL3 (human) (UniProt P10147); assay: ELISA with purified 3C12F on biotinylated or directly coated chemokine; antibody concentration not given
[7] = target: human MIP-1α/CCL3 (human) (UniProt P10147); assay: Binding (MSD)
[8] = target: human MIP-1α/CCL3 (human) (UniProt P10147); assay: ELISA, hybridoma supernatant
[9] = target: human MIP-1α/CCL3 (human) (UniProt P10147); assay: MSD electrochemiluminescence assay; chemokine coated at 1 µg/mL, 7D12A at 3 µg/mL; background = BSA
[10] = target: human MIP-1α/CCL3 (human) (UniProt P10147); assay: MSD electrochemiluminescence, coated chemokine, purified antibody 3 µg/mL (FIG. 9)
[11] = target: human MIP-1α/CCL3 (human) (UniProt P10147); assay: MSD electrochemiluminescence, coated chemokine, purified antibody 3 µg/mL (FIG. 10)
[12] = target: human MIP-1α/CCL3 (human) (UniProt P10147); assay: MSD electrochemiluminescence assay; chemokine coated at 1 µg/mL, 7D1G at 3 µg/mL; background = BSA
[13] = target: T1, Teck; assay: MSD electrochemiluminescence assay; chemokine coated at 1 µg/mL, 18V4F at 3 µg/mL; background = BSA
T1 sequence (chemokine): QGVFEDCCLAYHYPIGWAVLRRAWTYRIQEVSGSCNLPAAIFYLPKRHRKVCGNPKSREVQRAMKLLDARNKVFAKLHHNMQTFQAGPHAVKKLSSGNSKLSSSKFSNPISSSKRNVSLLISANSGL

Amino acid sequences for entries named in this document (tags omitted). A change or cut given only in a name is not applied to a line headed by its entry.
UniProt P10147: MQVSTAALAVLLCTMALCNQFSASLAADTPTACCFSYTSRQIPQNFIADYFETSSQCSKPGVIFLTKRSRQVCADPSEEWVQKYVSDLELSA

[14] = target: MCP-2; assay: as above
[15] = target: Fractalkine; assay: as above
[16] = target: SLC; assay: as above
[17] = target: T2, Eotaxin-3; assay: as above
T2 sequence (chemokine): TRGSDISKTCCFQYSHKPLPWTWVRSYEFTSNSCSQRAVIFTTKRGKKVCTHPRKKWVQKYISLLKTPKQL

[18] = target: T3, CCL28; assay: as above
T3 sequence (chemokine): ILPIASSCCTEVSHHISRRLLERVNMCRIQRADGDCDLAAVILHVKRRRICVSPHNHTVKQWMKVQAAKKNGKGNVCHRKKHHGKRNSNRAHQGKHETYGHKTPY

[19] = target: T4, IP-10; assay: as above
T4 sequence (chemokine): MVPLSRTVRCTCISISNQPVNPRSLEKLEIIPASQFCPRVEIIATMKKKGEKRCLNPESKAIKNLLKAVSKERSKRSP

[20] = target: T5, CXCL16; assay: as above
T5 sequence (chemokine): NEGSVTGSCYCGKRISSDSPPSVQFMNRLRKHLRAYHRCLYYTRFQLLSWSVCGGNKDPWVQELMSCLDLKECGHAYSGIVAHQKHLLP

[21] = target: human MIP-1α/CCL3 (human) (UniProt P10147); assay: as above
[22] = target: T6, MIG; assay: as above
T6 sequence (chemokine): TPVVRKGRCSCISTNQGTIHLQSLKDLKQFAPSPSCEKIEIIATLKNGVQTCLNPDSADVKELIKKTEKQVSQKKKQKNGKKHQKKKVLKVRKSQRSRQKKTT

[23] = target: human MIP-1α/CCL3 (human) (UniProt P10147); assay: ELISA, hybridoma clone supernatant
[24] = target: human MIP-1α/CCL3 (human) (UniProt P10147); assay: MSD electrochemiluminescence, coated chemokine, purified antibody 3 µg/mL (FIG. 11)
[25] = target: human MIP-1α/CCL3 (human) (UniProt P10147); assay: MSD electrochemiluminescence, coated chemokine, hybridoma supernatant (FIG. 12)
[26] = target: human MIP-1α/CCL3 (human) (UniProt P10147); assay: MSD electrochemiluminescence assay; chemokine coated at 1 µg/mL, 18P7E as unquantitated hybridoma supernatant; background = BSA

- binding [8]: binds
- binding [9]: binds
- binding [7]: binds
- binding [10]: binds
B2: monoclonal antibody 7D12A (antibody, V domains shown)
VH: EVHLQESGPSLVKPSQTLSLTCSVTGDSITNGYWNWIRKFPGNKLDYMGYISYDGNTYYNPSLKSRFSITRDTSKNQYYLQLNSVTTEDTATYYCSRGDYGTYVMDYWGQGTSVTVSS
VL: NIVLTQSPVSLAVSLGQRATISCRASESVDSHGNSFMHWYQQKPGQPPKLLIYLASNLESGVPARFTGGGSGSDFTLTIDPVEADDVGTYYCQQNNEDPYTFGGGTKLEIK

- binding [8]: binds
- binding [13]: no binding (tested: 3 µg/mL)
- binding [14]: no binding (tested: 3 µg/mL)
- binding [15]: no binding (tested: 3 µg/mL)
- binding [16]: no binding (tested: 3 µg/mL)
- binding [17]: no binding (tested: 3 µg/mL)
- binding [18]: no binding (tested: 3 µg/mL)
- binding [19]: no binding (tested: 3 µg/mL)
- binding [20]: no binding (tested: 3 µg/mL)
- binding [21]: binds
- binding [22]: no binding (tested: 3 µg/mL)
- binding [7]: binds
- binding [23]: binds
- binding [24]: binds
B4: monoclonal antibody 18V4F (antibody, V domains shown)
VH: QVQLKESGPGLVAPSQSLSITCTVSGFSLTGYGIHWVRQPPGKGLEWLGVIWPGGGTNYNSALMSRLSISKDNSKSQVFLKMNSLQTDDTAMYYCARGPLITTEVSMDYWGQGTSVTVSS
VL: QAVVTQESALTTSPGETVTLTCRSNTGAVTTSNYANWVQEKPDHLFTGLIGGTNNRAPGVPARFSGSLIGDKAALTITGAQTEDEAIYFCALWYSNHWVFGGGTKLTVLG

- binding [8]: binds
- binding [25]: binds
- binding [26]: binds
- binding [7]: binds
- binding [23]: binds
B5: monoclonal antibody 18P7E (antibody, V domains shown)
VH: B4 VH with S68N
VL: B4 VL

Further lines, the binder ahead of its results:

B1: monoclonal antibody 3C12F (antibody, V domains shown)
VH: EVQLQQSGAELVKPGASVKLSCTASGFNIKDTYIHWVKQRPEQGLEWIGRIDPANGNTQYDPKFQGKATITADTSSNTAYLQLTSLTSEDTAVYYCARRWDYDYAMDYWGQGTSVTVSS
VL: DIQMTQSPASLSASVGETVTITCRGSGNIHNYLAWYQQKQGKSPQLLVYNAKTLADGVPSRFSGSGSGTQYSLKINSLQPEDFGSYYCQHFWSTPYTFGGGTKLEIK
- binding [1]: binds
- binding [2]: binds
- binding [3]: no binding (tested: 3 µg/mL)
- binding [4]: no binding (tested: 3 µg/mL)
- binding [5]: binds
- binding [6]: binds
- binding [7]: binds

B3: monoclonal antibody 7D1G (antibody, V domains shown)
VH: QVQLQQPGAELVKPGASVKMSCKASGYTFTSYNIHWVKQTPGQGLEWIGAVSPRNGDTSYNQRFKGKATLTADISSSTAYMQLSSLTSEDSAVYYCARGYGYDYWGQGTTLTVSS
VL: DVVLTQSPATLSVTPGDRVSLSCRASQSVSKYLHWYQQKSHESPRLLIKYVSQSISGIPSRFSGSGSGTDFTLSINSVETEDLGMYFCQQSNSWPHTFGAGTKLELK
- binding [8]: binds
- binding [7]: binds
- binding [11]: binds
- binding [12]: binds

— patent publication US20150166647A1
